Common to all, as to assay: co-purification
Experiment [1] concerns the target T1, 10×His-tagged STAG1 (human) (UniProt Q8WVM7).
T1 sequence: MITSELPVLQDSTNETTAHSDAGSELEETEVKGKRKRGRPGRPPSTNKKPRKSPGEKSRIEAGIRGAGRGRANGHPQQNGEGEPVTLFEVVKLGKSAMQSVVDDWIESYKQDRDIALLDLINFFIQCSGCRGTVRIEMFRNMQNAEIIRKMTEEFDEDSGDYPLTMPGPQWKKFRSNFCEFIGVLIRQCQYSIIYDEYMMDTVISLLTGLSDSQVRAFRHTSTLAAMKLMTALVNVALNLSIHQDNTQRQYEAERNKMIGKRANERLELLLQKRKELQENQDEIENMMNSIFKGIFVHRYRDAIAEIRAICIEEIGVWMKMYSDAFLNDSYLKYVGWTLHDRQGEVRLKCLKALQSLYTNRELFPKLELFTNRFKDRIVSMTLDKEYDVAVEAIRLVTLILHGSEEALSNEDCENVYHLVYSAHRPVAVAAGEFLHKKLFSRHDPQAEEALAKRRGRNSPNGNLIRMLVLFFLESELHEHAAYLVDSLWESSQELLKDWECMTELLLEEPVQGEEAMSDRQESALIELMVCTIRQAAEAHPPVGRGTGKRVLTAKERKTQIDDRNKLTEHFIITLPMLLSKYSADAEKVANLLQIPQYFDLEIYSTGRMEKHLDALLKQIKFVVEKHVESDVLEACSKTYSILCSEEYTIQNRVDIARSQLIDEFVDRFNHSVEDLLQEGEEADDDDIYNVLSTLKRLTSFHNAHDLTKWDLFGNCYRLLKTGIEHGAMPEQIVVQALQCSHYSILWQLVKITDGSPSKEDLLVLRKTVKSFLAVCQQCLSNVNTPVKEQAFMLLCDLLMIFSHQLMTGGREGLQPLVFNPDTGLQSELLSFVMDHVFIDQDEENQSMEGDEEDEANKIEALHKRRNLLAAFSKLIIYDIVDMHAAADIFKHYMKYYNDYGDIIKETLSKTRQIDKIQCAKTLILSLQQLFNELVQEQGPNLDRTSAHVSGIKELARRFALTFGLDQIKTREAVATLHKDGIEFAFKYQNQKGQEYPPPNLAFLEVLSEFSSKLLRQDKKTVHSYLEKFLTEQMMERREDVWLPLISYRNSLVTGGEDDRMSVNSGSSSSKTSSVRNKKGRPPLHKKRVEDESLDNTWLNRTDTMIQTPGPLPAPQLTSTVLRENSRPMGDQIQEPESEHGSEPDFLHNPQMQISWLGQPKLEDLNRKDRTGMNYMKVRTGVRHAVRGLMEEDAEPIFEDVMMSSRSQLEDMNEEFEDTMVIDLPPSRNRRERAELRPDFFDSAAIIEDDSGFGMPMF

By UniProt entry, the sequences of proteins in these tests, tags left out.
UniProt Q6KC79: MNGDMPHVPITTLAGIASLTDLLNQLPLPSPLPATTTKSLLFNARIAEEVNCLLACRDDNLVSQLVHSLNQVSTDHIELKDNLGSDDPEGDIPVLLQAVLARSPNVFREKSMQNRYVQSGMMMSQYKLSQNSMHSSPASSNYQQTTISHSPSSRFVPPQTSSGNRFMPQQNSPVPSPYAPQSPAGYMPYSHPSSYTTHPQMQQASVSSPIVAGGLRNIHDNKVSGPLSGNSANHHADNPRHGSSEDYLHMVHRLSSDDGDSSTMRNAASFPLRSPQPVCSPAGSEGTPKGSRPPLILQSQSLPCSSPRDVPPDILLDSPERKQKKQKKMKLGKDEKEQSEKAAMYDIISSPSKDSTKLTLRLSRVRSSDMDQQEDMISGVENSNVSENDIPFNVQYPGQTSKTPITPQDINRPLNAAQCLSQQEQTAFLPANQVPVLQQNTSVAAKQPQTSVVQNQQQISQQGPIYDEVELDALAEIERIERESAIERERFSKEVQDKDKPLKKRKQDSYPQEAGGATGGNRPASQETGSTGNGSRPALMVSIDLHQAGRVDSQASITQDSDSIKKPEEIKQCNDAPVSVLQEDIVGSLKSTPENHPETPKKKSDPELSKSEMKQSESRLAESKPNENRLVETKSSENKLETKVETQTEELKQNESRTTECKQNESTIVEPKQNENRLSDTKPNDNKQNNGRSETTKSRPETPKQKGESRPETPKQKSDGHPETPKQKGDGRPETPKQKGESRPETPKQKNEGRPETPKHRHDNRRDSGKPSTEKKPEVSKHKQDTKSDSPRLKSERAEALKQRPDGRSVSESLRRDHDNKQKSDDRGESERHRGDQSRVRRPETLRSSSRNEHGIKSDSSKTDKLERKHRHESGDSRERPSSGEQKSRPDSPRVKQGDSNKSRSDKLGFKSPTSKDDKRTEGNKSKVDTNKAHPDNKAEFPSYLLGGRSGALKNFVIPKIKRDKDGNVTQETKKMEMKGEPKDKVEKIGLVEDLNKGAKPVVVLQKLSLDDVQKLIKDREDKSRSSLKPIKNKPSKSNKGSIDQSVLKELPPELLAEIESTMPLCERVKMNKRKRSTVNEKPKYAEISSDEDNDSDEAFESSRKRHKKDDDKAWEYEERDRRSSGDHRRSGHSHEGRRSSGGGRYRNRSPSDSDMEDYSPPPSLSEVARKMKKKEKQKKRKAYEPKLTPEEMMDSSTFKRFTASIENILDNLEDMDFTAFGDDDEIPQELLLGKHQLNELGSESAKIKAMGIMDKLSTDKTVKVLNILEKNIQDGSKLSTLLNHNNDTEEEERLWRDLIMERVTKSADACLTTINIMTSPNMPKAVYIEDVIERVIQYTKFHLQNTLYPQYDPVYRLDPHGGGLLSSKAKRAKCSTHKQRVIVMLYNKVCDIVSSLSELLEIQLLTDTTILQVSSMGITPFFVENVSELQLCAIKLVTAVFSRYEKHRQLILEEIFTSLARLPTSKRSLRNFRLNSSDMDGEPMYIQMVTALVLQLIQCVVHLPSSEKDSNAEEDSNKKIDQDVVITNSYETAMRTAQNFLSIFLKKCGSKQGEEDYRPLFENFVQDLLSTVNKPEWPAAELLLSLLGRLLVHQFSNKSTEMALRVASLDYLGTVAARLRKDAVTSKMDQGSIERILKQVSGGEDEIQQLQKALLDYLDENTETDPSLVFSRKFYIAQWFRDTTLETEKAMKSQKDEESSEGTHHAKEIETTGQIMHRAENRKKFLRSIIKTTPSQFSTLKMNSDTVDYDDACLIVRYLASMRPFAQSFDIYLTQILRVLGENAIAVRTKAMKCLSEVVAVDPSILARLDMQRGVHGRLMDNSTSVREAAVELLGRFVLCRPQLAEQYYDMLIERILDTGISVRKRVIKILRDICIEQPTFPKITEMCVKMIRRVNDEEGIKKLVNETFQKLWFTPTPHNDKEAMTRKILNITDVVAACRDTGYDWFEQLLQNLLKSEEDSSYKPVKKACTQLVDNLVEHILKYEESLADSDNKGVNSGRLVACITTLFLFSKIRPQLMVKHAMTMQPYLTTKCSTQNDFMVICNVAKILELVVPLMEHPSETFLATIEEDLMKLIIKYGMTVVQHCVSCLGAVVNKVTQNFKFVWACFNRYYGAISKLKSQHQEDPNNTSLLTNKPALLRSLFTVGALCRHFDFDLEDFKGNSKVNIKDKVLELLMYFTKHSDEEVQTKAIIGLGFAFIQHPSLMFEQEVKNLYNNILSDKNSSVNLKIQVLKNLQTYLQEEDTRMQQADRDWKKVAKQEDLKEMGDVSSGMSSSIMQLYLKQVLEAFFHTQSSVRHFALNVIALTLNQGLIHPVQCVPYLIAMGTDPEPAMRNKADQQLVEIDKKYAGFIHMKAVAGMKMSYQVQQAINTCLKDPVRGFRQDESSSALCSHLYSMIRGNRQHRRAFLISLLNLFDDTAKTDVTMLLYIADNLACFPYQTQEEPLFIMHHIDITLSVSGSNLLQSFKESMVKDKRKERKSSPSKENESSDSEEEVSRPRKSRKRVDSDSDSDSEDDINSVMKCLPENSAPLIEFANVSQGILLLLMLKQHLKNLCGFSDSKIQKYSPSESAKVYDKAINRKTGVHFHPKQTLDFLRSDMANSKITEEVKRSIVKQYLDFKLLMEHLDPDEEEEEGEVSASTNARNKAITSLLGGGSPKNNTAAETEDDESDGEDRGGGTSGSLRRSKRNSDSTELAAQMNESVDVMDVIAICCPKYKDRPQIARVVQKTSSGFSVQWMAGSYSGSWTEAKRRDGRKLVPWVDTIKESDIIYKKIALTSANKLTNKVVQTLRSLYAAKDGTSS
UniProt Q9UQE7: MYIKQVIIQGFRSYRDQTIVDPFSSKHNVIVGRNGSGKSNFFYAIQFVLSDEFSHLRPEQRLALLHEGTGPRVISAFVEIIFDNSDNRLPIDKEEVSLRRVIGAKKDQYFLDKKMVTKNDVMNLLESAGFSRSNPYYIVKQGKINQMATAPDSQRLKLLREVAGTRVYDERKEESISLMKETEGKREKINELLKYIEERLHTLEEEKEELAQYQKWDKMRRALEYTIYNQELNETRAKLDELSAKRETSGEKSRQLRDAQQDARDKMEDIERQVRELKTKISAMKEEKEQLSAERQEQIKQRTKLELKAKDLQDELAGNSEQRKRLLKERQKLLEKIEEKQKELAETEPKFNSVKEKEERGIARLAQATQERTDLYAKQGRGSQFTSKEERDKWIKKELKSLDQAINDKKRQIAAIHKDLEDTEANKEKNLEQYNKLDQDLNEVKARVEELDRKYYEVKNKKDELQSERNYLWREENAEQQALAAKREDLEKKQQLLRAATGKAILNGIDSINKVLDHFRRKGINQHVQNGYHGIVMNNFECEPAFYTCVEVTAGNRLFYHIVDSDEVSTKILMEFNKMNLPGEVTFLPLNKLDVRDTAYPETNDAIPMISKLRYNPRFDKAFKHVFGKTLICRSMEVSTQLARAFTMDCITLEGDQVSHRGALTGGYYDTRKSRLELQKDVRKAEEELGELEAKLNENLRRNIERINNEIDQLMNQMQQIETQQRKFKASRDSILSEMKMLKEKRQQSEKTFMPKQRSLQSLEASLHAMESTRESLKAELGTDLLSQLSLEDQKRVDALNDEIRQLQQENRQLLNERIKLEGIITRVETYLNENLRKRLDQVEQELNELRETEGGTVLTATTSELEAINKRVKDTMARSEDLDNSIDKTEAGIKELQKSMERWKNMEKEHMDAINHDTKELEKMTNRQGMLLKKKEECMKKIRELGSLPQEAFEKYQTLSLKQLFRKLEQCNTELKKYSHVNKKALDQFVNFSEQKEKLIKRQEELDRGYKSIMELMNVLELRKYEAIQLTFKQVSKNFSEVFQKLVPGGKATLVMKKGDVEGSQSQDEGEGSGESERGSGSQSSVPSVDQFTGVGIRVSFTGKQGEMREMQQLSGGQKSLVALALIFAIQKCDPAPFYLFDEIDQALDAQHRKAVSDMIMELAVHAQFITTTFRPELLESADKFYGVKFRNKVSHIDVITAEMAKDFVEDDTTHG

For experiment [2], the target named is T2, 10×His-tagged STAG2 (human) (UniProt Q8N3U4).
T2 sequence: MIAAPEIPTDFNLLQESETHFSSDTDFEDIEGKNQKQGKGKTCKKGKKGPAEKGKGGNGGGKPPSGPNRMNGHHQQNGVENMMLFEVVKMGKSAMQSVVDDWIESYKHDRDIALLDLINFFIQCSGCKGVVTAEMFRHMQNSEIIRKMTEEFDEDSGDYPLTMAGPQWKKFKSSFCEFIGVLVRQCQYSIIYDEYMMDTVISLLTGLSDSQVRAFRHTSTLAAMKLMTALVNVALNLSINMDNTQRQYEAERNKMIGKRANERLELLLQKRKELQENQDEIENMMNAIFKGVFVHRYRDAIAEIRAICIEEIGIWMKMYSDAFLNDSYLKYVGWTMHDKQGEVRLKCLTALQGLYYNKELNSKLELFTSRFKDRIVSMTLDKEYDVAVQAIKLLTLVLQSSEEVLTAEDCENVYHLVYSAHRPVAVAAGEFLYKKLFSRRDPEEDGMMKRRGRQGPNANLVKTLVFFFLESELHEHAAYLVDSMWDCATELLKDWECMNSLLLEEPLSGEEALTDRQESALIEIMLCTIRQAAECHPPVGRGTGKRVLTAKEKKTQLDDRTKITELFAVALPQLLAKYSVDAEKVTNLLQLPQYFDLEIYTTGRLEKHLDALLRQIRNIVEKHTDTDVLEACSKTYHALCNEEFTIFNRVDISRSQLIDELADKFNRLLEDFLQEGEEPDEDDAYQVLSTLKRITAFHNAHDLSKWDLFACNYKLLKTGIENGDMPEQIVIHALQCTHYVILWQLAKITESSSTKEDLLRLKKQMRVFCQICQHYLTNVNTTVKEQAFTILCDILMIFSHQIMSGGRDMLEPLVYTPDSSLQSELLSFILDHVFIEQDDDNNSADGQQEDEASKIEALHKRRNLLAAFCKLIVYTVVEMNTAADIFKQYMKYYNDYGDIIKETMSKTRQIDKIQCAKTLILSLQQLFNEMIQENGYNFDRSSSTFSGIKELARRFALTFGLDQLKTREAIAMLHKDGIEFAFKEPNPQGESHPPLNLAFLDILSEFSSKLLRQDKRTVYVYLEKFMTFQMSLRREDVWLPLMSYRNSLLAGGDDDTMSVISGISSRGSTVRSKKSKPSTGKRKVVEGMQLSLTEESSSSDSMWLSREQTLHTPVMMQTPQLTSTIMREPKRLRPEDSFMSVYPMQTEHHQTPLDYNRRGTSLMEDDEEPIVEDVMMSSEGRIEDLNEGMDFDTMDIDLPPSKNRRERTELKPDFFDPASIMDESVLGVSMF

Experiment [3] deals with FLAG-Halo-NIPBL-10×His (human) (UniProt Q6KC79).

Results are given in words; binding and its absence hold for the method and conditions named. Some binding calls cover weakened binding; strength is not graded here. For part of these data: Sequences can lack the tags named with a protein.

For Smc3^FLAG (from UniProt Q9UQE7 1-1217), the binding result in experiment [1] and in experiment [2] was “binds” throughout.

B1: Mau2 (protein, UniProt Q9Y6X3 1-613)
chain: MAAQAAAAAQAAAAQAAQAEAADSWYLALLGFAEHFRTSSPPKIRLCVHCLQAVFPFKPPQRIEARTHLQLGSVLYHHTKNSEQARSHLEKAWLISQQIPQFEDVKFEAASLLSELYCQENSVDAAKPLLRKAIQISQQTPYWHCRLLFQLAQLHTLEKDLVSACDLLGVGAEYARVVGSEYTRALFLLSKGMLLLMERKLQEVHPLLTLCGQIVENWQGNPIQKESLRVFFLVLQVTHYLDAGQVKSVKPCLKQLQQCIQTISTLHDDEILPSNPADLFHWLPKEHMCVLVYLVTVMHSMQAGYLEKAQKYTDKALMQLEKLKMLDCSPILSSFQVILLEHIIMCRLVTGHKATALQEISQVCQLCQQSPRLFSNHAAQLHTLLGLYCVSVNCMDNAEAQFTTALRLTNHQELWAFIVTNLASVYIREGNRHQEVLYSLLERINPDHSFPVSSHCLRAAAFYVRGLFSFFQGRYNEAKRFLRETLKMSNAEDLNRLTACSLVLLGHIFYVLGNHRESNNMVVPAMQLASKIPDMSVQLWSSALLRDLNKACGNAMDAHEAAQMHQNFSQQLLQDHIEACSLPEHNLITWTDGPPPVQFQAQNGPNTSLASLL
As for B1, in experiment [3], the binding result is recorded as “binds”.

The values are drawn from doi:10.1101/2025.11.17.688764.
